Experiment [1] concerns the target Snf2∆RG-Myc (S. cerevisiae) (UniProt P22082). In words: co-IP; yeast lysate in TMG 50 (10 mM Tris-HCl pH 8.0, 50 mM NaCl, 10% glycerol); Myc-tagged Snf2 precipitated overnight with 9E10 antibody and protein-G dynabeads; blot with anti-Set1 antibodies.
In experiment [2] the target is T1, Set1 1–754, two-hybrid bait (S. cerevisiae) (UniProt P38827).
T1 sequence: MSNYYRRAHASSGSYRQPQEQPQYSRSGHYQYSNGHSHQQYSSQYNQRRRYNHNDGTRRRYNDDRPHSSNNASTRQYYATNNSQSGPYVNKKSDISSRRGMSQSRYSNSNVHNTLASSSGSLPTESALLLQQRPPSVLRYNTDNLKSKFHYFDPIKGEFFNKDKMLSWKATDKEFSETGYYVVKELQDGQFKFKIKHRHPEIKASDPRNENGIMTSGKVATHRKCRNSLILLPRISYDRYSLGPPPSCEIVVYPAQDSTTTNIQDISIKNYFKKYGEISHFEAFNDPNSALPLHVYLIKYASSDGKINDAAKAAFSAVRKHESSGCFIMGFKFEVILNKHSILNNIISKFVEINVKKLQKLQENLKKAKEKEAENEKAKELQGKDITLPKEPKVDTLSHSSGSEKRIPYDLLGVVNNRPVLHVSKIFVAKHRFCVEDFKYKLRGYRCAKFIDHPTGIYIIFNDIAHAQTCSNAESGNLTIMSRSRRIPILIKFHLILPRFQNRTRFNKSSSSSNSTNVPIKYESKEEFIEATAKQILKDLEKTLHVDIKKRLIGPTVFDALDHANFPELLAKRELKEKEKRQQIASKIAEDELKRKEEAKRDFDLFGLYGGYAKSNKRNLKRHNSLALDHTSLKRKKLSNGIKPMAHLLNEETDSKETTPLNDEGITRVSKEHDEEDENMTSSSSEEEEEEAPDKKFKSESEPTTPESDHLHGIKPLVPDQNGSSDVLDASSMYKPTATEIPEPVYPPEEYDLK
In words: two-hybrid; 10 screens (Hybrigenics) of a genomic S. cerevisiae library in pP6 by mating; baits fused to the Gal4 DNA-binding domain or LexA; selection on medium lacking tryptophan, leucine and histidine, with 3AT if necessary.

Amino acid sequences for entries named in this document (tags omitted). A change or cut given only in a name is not applied to a line headed by its entry.
UniProt P22082: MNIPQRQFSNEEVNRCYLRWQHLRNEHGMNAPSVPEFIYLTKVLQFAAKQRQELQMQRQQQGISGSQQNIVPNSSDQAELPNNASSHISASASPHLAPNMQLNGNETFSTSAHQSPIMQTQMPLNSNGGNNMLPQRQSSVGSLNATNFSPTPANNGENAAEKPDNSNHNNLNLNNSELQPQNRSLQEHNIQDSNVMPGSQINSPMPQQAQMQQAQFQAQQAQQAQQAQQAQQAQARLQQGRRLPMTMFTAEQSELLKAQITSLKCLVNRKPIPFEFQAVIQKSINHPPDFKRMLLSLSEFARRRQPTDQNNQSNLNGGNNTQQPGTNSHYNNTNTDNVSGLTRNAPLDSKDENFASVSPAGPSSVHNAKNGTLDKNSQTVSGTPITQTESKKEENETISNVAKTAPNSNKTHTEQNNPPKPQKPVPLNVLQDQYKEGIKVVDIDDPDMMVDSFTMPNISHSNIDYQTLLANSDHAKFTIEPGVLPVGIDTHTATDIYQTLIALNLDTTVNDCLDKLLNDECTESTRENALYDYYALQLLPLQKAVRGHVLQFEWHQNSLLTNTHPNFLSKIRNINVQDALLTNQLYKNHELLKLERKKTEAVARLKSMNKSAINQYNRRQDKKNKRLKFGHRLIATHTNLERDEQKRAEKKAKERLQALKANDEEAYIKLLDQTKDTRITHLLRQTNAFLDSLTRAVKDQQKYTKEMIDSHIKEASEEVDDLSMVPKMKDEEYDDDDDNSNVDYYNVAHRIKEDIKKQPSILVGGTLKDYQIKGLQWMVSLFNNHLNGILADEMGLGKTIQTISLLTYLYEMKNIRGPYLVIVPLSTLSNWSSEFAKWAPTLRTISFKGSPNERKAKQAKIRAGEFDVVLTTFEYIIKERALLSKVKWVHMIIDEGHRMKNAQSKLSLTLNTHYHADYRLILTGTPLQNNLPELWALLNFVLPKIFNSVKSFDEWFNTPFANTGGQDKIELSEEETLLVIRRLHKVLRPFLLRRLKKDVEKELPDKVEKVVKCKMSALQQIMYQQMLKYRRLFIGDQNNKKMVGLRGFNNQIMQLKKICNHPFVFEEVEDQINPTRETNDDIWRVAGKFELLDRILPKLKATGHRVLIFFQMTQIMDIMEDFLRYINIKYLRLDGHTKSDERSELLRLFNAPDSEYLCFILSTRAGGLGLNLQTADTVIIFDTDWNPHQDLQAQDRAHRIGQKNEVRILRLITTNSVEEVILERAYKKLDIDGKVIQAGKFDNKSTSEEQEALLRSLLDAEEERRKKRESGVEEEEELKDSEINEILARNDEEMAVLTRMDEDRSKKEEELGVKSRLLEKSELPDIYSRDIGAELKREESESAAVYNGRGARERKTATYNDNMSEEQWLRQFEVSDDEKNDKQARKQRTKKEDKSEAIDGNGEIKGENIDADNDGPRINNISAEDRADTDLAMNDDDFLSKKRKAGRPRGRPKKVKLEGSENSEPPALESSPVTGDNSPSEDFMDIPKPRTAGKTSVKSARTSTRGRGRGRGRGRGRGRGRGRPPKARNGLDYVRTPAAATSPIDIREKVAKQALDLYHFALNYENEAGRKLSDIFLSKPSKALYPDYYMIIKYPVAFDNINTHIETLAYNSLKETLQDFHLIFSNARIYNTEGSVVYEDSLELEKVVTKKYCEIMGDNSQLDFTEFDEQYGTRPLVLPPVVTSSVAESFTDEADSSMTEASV
UniProt P04050: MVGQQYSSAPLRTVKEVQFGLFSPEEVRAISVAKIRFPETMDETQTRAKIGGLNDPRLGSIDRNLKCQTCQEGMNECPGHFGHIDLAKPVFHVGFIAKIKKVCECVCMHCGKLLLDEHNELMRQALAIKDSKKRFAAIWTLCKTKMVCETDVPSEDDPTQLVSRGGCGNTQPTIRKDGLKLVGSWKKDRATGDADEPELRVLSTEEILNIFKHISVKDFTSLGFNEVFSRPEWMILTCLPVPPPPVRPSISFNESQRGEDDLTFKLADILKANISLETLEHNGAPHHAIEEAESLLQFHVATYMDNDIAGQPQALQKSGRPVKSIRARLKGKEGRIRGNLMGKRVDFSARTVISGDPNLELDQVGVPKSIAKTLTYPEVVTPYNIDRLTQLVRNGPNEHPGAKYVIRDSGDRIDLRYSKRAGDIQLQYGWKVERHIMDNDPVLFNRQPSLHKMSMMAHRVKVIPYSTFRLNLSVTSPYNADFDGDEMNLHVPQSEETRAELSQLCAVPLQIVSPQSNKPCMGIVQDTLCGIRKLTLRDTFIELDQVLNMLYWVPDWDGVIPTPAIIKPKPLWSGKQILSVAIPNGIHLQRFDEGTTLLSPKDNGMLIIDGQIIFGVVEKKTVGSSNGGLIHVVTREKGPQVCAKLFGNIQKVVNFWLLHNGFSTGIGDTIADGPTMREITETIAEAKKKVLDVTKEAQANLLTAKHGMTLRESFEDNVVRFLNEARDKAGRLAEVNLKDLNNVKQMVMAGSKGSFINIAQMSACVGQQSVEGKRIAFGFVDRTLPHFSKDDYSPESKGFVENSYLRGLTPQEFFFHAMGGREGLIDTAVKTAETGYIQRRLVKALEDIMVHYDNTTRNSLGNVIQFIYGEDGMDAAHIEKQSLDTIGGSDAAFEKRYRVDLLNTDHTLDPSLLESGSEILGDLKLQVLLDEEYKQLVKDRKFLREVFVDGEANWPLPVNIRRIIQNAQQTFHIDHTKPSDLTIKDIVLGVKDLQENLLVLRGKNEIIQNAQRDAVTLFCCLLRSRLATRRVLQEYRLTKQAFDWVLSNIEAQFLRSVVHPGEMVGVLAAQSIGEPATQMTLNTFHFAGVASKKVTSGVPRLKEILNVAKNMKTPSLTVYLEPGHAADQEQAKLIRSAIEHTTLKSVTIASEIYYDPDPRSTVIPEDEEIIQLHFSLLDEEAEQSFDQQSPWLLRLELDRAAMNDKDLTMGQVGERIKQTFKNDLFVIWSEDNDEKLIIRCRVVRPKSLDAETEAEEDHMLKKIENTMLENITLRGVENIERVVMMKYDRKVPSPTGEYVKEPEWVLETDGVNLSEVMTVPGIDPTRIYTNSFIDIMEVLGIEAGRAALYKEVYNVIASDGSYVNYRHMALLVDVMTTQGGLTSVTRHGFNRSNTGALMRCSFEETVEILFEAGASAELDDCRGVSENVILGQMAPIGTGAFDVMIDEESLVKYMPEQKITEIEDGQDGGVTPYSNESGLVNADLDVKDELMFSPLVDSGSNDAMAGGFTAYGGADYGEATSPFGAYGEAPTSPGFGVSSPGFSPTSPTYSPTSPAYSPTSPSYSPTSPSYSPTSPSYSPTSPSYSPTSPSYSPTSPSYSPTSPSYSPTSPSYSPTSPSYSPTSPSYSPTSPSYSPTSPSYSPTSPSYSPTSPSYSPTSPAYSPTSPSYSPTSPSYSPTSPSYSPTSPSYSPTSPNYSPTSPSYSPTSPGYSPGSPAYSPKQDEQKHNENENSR

The text below walks through data of PMC13581290, “A systematic interactome of Saccharomyces cerevisiae SET1C expands its functional landscape and identifies candidate regulatory connections” (eLife, 2026).

These are yes or no findings as the source states them, for the method shown. Binding can be weak; no strength is given. For some assays here: In cells and extracts the contact can be indirect.

Consider “Set1 (endogenous) (from UniProt P38827 1-1080)”, for which, in experiment [1], the binding entry is “binds”.
Turning to “CTD of Rpb1, two-hybrid prey (from UniProt P04050) (domain or fragment)”, the binding entry in experiment [2] was “binds”.
